Measured values: article PMC3084716

Columns and labels:
[1] = biological target: PTEN, native from cerebellum (mouse) (UniProt O08586); test: aptamer western blot; details: denatured; protein in an extract; label: 5'-biotin or 32P (assay dependent); folded or branched DNA
[2] = biological target: PTEN, native from cerebellum (mouse) (UniProt O08586); test: pull-down, immunoblot; details: protein in an extract, label: 5'-biotin or 32P (assay dependent), folded or branched DNA
GST-Anp32e = test: filter binding; details: Filter binding: 50 mM Tris (pH not given), 1 h, 40 µl, protein 0.5 mg/ml (Fig. 2E: GST-PTEN 25 µM), PBS washes; co-precipitation 1 h at room temperature, 1 µM aptamer; recombinant protein; protein details: GST; label: 5'-biotin or 32P (assay dependent); folded or branched DNA

Sequence	binding result [1]	binding result ([2]; depletes PTEN from cytoplasmic fraction)	binding result (GST-Anp32e)	binding result ([2]; depletes PTEN from nuclear fraction)
CGGAATTCCGAGCGTGGGCGTGAGCCCTAAACACAAGTCCGCAGGGGTGTGGTAATATTCGCAGTTGTGTGTACGCCCACGCTCGAG [PTENz14]	binds	binds	–	–
CGGAATTCCGAGCGTGGGCGTGGTCATACCGCGCCTATCGAACTCGCCACTCGCGTGCAGCTCTGTGTAGGTACGCCCACGCTCGAG [PTENz7]	binds	–	no binding	binds

For at least one entry, the source does not settle the construct or the ends of the probe. For some assays here: No signal at the amounts used counts as a negative. For some assays here: At least one result comes from cells or an extract, where the contact may be indirect.
